Test results taken from the supplement of paper PMC10849652.
Some of the results follow.

The chains behind the UniProt entries cited, without tags or fusion partners. Where a name states a change or a piece, a line headed by the entry shows the natural chain unless it says otherwise.
UniProt Q8NFZ5: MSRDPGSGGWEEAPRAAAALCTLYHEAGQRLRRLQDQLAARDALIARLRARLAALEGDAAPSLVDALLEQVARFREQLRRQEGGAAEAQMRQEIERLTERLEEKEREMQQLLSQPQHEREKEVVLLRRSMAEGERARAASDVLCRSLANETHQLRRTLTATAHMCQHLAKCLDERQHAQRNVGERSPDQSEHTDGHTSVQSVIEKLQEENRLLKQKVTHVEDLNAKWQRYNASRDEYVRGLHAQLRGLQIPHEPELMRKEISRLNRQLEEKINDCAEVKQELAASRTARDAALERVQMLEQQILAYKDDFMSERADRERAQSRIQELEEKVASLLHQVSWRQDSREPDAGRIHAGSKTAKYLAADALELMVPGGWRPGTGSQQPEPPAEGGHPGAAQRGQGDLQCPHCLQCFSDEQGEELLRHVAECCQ
UniProt Q02880: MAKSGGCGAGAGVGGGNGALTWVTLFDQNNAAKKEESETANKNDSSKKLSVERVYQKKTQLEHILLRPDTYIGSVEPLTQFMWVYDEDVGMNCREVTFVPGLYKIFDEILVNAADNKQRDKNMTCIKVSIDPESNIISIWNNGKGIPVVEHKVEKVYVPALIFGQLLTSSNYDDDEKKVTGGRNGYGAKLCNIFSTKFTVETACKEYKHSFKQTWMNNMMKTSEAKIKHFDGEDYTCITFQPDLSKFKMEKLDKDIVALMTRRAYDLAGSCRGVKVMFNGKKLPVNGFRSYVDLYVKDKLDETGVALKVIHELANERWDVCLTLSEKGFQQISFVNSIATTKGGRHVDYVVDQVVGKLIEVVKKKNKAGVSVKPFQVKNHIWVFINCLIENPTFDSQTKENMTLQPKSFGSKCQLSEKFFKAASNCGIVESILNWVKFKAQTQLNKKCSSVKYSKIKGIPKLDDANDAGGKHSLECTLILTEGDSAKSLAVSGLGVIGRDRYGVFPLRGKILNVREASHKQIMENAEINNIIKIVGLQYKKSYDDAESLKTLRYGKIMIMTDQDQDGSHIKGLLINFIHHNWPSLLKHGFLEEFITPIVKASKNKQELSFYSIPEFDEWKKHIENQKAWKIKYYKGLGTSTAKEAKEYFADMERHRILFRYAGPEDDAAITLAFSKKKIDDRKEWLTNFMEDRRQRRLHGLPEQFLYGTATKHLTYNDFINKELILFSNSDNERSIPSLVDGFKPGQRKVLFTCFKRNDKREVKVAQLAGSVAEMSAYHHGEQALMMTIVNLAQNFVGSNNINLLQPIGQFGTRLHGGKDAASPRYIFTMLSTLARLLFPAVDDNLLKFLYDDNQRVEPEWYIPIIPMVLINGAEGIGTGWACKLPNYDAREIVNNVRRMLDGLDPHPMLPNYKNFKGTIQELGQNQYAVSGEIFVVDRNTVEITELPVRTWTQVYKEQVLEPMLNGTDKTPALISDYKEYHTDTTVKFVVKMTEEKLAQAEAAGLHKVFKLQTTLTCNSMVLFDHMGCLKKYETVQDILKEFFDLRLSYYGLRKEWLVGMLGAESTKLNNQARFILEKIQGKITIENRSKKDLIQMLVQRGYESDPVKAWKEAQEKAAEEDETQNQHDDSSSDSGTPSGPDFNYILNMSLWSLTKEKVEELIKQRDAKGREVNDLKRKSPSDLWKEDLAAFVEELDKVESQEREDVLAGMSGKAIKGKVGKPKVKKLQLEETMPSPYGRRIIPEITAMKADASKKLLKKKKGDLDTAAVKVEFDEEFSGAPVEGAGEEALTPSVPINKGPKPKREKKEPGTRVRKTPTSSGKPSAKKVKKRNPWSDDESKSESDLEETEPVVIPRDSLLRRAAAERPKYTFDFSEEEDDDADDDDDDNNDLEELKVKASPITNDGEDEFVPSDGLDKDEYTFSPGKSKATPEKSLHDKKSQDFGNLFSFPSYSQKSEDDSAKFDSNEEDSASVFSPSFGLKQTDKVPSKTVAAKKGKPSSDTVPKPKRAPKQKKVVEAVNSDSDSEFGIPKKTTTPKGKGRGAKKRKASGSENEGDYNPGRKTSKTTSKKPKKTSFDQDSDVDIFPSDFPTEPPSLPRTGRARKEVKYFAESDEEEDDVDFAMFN
UniProt Q96SK2: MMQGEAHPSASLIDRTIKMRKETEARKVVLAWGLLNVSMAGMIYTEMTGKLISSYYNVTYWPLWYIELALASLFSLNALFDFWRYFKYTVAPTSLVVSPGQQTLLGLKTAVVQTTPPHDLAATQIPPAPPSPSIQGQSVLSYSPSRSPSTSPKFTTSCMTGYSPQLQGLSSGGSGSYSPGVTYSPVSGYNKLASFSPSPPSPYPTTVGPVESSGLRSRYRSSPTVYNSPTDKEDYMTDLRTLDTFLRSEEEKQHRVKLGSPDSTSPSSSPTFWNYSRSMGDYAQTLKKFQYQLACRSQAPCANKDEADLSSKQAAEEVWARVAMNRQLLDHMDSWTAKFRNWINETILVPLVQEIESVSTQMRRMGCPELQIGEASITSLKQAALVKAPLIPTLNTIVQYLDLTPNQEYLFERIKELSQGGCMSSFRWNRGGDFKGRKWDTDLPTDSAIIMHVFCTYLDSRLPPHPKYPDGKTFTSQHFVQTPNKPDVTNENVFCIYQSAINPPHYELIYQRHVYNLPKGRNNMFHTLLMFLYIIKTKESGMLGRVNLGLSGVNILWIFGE
UniProt P29144: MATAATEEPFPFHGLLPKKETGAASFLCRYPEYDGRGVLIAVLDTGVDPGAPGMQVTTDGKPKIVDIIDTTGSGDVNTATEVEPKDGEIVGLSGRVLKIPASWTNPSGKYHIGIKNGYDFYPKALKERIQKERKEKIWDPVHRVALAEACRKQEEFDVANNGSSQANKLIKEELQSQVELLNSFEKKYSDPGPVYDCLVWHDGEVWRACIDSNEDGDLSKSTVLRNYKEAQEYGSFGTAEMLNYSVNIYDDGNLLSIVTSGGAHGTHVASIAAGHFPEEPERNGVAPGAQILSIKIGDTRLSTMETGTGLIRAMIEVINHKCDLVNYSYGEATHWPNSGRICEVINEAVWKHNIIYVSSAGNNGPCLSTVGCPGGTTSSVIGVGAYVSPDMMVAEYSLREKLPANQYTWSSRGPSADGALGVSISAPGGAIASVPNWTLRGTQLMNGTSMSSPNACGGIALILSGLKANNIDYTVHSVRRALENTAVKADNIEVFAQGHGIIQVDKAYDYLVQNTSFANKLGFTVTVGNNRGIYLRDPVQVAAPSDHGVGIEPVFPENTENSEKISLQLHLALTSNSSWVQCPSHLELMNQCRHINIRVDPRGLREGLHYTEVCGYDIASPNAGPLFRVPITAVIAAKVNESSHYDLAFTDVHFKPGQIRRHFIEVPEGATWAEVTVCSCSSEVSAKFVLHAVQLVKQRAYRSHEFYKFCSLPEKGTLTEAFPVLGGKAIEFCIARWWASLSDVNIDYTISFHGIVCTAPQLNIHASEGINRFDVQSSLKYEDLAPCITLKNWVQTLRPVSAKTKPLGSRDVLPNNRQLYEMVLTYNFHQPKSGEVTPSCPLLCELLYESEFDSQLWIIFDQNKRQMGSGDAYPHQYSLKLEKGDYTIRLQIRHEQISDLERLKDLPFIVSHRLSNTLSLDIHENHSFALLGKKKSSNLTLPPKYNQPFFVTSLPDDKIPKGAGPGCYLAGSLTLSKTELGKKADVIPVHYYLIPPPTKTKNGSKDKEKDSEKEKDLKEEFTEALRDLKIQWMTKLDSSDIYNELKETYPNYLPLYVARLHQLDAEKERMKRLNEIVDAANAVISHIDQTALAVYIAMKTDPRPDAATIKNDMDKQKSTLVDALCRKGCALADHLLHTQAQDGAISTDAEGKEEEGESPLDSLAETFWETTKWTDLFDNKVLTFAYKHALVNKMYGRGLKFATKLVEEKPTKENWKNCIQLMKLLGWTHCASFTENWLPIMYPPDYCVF
UniProt Q96A57: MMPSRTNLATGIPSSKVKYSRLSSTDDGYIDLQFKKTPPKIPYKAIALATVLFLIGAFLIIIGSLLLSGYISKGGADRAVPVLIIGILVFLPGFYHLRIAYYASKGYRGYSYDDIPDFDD
UniProt Q96K49: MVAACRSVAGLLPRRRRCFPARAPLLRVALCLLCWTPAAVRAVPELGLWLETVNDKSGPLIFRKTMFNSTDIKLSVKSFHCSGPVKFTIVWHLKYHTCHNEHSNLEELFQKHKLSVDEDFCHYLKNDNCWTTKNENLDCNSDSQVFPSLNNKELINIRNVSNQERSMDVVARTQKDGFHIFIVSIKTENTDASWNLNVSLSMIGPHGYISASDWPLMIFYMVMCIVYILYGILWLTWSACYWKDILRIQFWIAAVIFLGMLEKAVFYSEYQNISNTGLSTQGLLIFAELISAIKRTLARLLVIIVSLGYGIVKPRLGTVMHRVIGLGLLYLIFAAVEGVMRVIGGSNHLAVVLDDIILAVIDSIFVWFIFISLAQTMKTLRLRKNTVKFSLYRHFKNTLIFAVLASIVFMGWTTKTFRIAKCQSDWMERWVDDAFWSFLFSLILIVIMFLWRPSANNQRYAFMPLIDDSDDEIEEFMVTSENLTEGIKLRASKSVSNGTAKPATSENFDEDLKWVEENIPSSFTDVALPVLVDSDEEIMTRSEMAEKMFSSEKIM

Experiments:
Test in all cases: log2 fold change, soluble protein after heating vs DMSO (PISA); higher = thermal stabilisation; K562 lysate, 10 uM; active = over 0.2 and 3.5 SD of the protein, either way, in both replicates (recomputed)
lapatinib = compound: CS(=O)(=O)CCNCc1ccc(-c2ccc3ncnc(Nc4ccc(OCc5cccc(F)c5)c(Cl)c4)c3c2)o1 [lapatinib]
Method in brief: (§1)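 Pellets of K562 cells were dounce-homogenised in PBS pH 7.4 with 1 mM MgCl2, and the crude extract was held at 1 mg/mL protein for a 30 min treatment with 10 μM compound. Aliquots were heated for 3 min over 48°C-58°C and pooled before NP-40 was added to 0.5% at 4°C. The supernatant from 21,000xg for 90 min was quantified by TMTpro 16plex LC-MS/MS with channel sums equalised. Values are reported from duplicates as log-two fold change in thermal stability relative to solvent controls.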

pictilisib = compound: CS(=O)(=O)N1CCN(Cc2cc3nc(-c4cccc5[nH]ncc45)nc(N4CCOCC4)c3s2)CC1 [pictilisib]
Method in brief: as §1

crizotinib = compound: C[C@@H](Oc1cc(-c2cnn(C3CCNCC3)c2)cnc1N)c1c(Cl)ccc(F)c1Cl [crizotinib]
Method in brief: as §1

[1] = compound: C[C@H](C1=CC=C(C=C1)C(=O)NC2=C3C=CNC3=NC=C2)N
Method in brief: as §1

gandotinib = compound: Cc1cc(Nc2cc(CN3CCOCC3)c3nc(C)c(Cc4ccc(Cl)cc4F)n3n2)n[nH]1 [gandotinib]
Method in brief: as §1

tozasertib = compound: Cc1cc(Nc2cc(N3CCN(C)CC3)nc(Sc3ccc(NC(=O)C4CC4)cc3)n2)n[nH]1 [tozasertib]
Method in brief: as §1

doramapimod = compound: Cc1ccc(-n2nc(C(C)(C)C)cc2NC(=O)Nc2ccc(OCCN3CCOCC3)c3ccccc23)cc1 [doramapimod]
Method in brief: as §1

bafetinib = compound: Cc1ccc(NC(=O)c2ccc(CN3CC[C@H](N(C)C)C3)c(C(F)(F)F)c2)cc1Nc1nccc(-c2cncnc2)n1 [bafetinib]
Method in brief: as §1

[2] = compound: Cc1cccc(CC(=O)N2CCc3c2ccc(-c2cn(C)c4ncnc(N)c24)c3F)n1
Method in brief: as §1

nilotinib = compound: Cc1cn(-c2cc(NC(=O)c3ccc(C)c(Nc4nccc(-c5cccnc5)n4)c3)cc(C(F)(F)F)c2)cn1 [nilotinib]
Method in brief: as §1

[3] = compound: Cc1nc(Nc2n[nH]c3c2CN(C(=O)N[C@H](CN(C)C)c2ccccc2)C3(C)C)c2sccc2n1
Method in brief: as §1

[4] = compound: Cc1ncc(-c2ccnc(Nc3ccc(S(C)(=O)=O)cc3)n2)n1C(C)C
Method in brief: as §1

quisinostat = compound: Cn1cc(CNCC2CCN(c3ncc(C(=O)NO)cn3)CC2)c2ccccc21 [quisinostat]
Method in brief: as §1

tipifarnib = compound: Cn1cncc1[C@@](N)(c1ccc(Cl)cc1)c1ccc2c(c1)c(-c1cccc(Cl)c1)cc(=O)n2C [tipifarnib]
Method in brief: as §1

[5] = compound: NC(=O)Nc1cc(-c2cccc(F)c2)sc1C(=O)N[C@H]1CCCNC1
Method in brief: as §1

[6] = compound: NC(=O)c1cnc(N[C@@H]2CCCC[C@@H]2N)nc1Nc1cccc(-n2nccn2)c1
Method in brief: as §1

[7] = compound: NC1(c2ccc(-c3nc4ccn5c(=O)[nH]nc5c4cc3-c3ccccc3)cc2)CCC1
Method in brief: as §1

duvelisib = compound: C[C@H](Nc1ncnc2nc[nH]c12)c1cc2cccc(Cl)c2c(=O)n1-c1ccccc1 [duvelisib]
Method in brief: as §1

dasatinib = compound: Cc1nc(Nc2ncc(C(=O)Nc3c(C)cccc3Cl)s2)cc(N2CCN(CCO)CC2)n1 [dasatinib]
Method in brief: as §1

[8] = compound: Cn1cc(-c2ccc3c(c2)CCN3C(=O)Cc2cccc(C(F)(F)F)c2)c2c(N)ncnc21
Method in brief: as §1

Measured: log2 fold change

TNIP2 (UniProt Q8NFZ5)
inactive: lapatinib -0.013 | pictilisib -0.034 | crizotinib -0.033 | [1] 0.024 | gandotinib 0.13 | tozasertib -0.044 | doramapimod 0.008 | bafetinib 0.026 | [2] 0.019 | nilotinib 0.083 | [3] -0.031 | [4] 0.07 | quisinostat -0.274 | tipifarnib 0.212 | [5] 0.25 | [6] 0.104 | [7] 0.01

TOP2B isoform 2 (UniProt Q02880)
inactive: lapatinib -0.02 | pictilisib -0.023 | crizotinib -0.027 | [1] 0.177 | duvelisib -0.027 | gandotinib -0.101 | tozasertib 0 | doramapimod 0.005 | bafetinib -0.025 | [2] -0.071 | nilotinib 0.015 | [3] -0.016 | dasatinib 0.044 | [4] 0.016 | [8] 0 | quisinostat -0.024 | tipifarnib 0.018 | [5] 0.044 | [6] -0.007 | [7] -0.013

TMEM209 (UniProt Q96SK2)
inactive: lapatinib -0.384 | pictilisib -0.076 | crizotinib 0.076 | [1] -0.326 | duvelisib -0.248 | gandotinib 0.09 | doramapimod -0.07 | bafetinib 0.166 | [2] -0.012 | dasatinib 0.077 | [8] -0.059 | quisinostat 0.158 | [5] 0.018 | [6] -0.003 | [7] -0.147

TPT1 (UniProt E9PJF7)
inactive: lapatinib -0.077 | pictilisib -0.531 | crizotinib 0.086 | [1] -0.056 | gandotinib -0.234 | doramapimod -0.019 | bafetinib -0.158 | [2] -0.584 | quisinostat 0.087 | [5] -0.065 | [6] -0.142 | [7] -0.283

TPP2 (UniProt P29144)
inactive: lapatinib -0.007 | pictilisib 0.014 | crizotinib -0.009 | [1] 0.035 | duvelisib 0.011 | gandotinib -0.011 | tozasertib -0.009 | doramapimod 0.007 | bafetinib -0.008 | [2] -0.011 | nilotinib 0.013 | [3] -0.005 | dasatinib -0.005 | [4] -0.02 | [8] 0.019 | quisinostat 0.01 | tipifarnib 0.006 | [5] 0.013 | [6] 0 | [7] 0.003

TMEM230 isoform 2 (UniProt Q96A57)
inactive: lapatinib -0.001 | pictilisib -0.132 | crizotinib 0.101 | [1] 0.011 | duvelisib -0.021 | gandotinib 0.008 | tozasertib 0.068 | doramapimod 0.062 | bafetinib 0.097 | [2] 0.084 | dasatinib 0.007 | [8] 0.041 | quisinostat -0.162 | [5] 0.005 | [6] -0.029 | [7] -0.037

TMEM87B (UniProt Q96K49)
inactive: lapatinib -0.044 | pictilisib 0.147 | crizotinib -0.017 | [1] 0.004 | duvelisib 0.039 | gandotinib -0.077 | tozasertib 0.068 | doramapimod 0.026 | bafetinib 0.126 | [2] 0 | nilotinib 0.008 | [3] 0.086 | dasatinib -0.006 | [4] -0.02 | [8] 0.023 | quisinostat -0.012 | tipifarnib -0.011 | [5] -0.016 | [6] -0.019 | [7] -0.048
